Experimental data reported in PMC10163288.
The list shows a part of the results.

B1: il2ra_site2_2erj_sap_14_mot_HHH_b1_03833_000000078_0001_1_20_H_._HHH_b1_07248_0001_0001200026_0000001_0_0001_af2pred_0001_1_af2pred_swapped (protein)
chain: SSSSSSEERRAAEANARLARLLFEGDEEEAEKVAEELEELAERVNDEDLLASAEFVLELLSSSSS
B2: il2ra_site2_2erj_sap_18_mot_HHH_b1_00449_000000059_0001_39_52_H_._HHH_b1_08757_af2_0001_0001000014_0000001_0_0001_af2pred_0001_af2pred (protein)
chain: SSSSSDEEEQREVEELLERARHIPDIEEALKLLQRAAQLAQELNDPELIELVEELLRELSSSSSS
B3: il2ra_site1_1z92_normal_mot_HHH_b1_05118_af2_000000199_0001_39_52_H_._HEEHE_3047_af2_0001_0000100001_0000001_0_af2pred_0001_af2pred_1 (protein)
chain: SEEEDIEKFVELASKSAGVPSVEWSIHNGELHVTINGDDEAARRLRKLLEKFAKAAGFKVSVEIR
B4: il2ra_site1_1z92_sap_19_mot_HHH_b1_05118_af2_000000199_0001_39_52_H_._HHH_b1_05328_af2_0001_0000400021_0000001_0_0001 (protein)
chain: DEIEELIEQLLRRAGVPPKDVEYVAEQAKRALERGNPRAATRLVKDMLRLAGNPELAEELEERLP
B5: il2ra_site1_3nfp_sap_12_mot_HHH_b1_04676_af2_000000031_0001_1_20_H_._HHH_b1_02329_0001_0000100005_0000001_0_0001 (protein)
chain: SLEEELKRLVEEGDPEELKRILEELIREALEKHDPRLAHEVLRLIAKLDLHGDPAARLAYEIIAK
B6: il2ra_site1_2b5i_normal_mot_2548690152cc24afdf538b66510d0e06_0001_af2_000000000_0001_37_51_H_._HHH_b2_05999_0001_0000400038_0000001_0_af2pred_dldesign_0_af2pred (protein)
chain: SSSSSPQERAFLRKYLEYAIKRIPDPAVQARLQAALARLEAEGDTETARAAAEEADEHLLSSSSS
B7: il2ra_site1_3nfp_sap_17_mot_HHH_b2_00809_af2_000000121_0001_23_40_H_._HHH_b1_05348_0001_0000800011_0000001_0_0001_af2pred_0001_af2pred (protein)
chain: SSSDIKREADRLLKELKELLANDDPEKFEEVFKRAEEVIEEANDPLAEEMLEFLEEKAKELSSSS
B8: il2ra_site2_3nfp_normal_mot_HHH_b2_04451_000000238_0001_21_37_H_._HHH_b1_07886_af2_0001_0000700027_0000001_0 (protein)
chain: SSSSSSEEVEELLQEARELLEEGDPAEALEVLQKASEIAARLGDEELARKVLELFELIQRSSSSS
B9: il2ra_site2_3nfp_sap_17_mot_HHH_b1_00660_af2_000000199_0001_40_57_H_._HHH_b1_02808_af2_0001_0001200012_0000001_0_0001 (protein)
chain: SSDPERLKILAEMIRALLKIVEDPEAQELVEEALELAEEALEKQDRELAAEASHLAAEAMEIRSS
B10: il2ra_site2_3nfp_sap_19_mot_HHH_b2_06797_000000207_0001_22_38_H_._038fe1aee5932669f1ddd6e60ea7a8eb_0001_0001_0000800055_0000001_0_0001 (protein)
chain: SEEEQRRLAQEIFELGDEDAFAALADIMFAKIKGDPEAEESAEKAIEEIKKKDPELARLLEEALK
B11: il2ra_site1_2b5i_sap_14_mot_HHH_b2_06557_000000121_0001_42_56_H_._HHH_b1_08067_0001_0000400026_0000001_0_0001_af2pred_dldesign_0_af2pred (protein)
chain: SSSSSAVGREIRRLMLEADALFKAGKEEEAKELLEKALALAKANKRAGFARLLEAMLEQLESSSS
B12: il2ra_site2_3nfp_sap_23_mot_HHH_b1_05208_af2_000000289_0001_23_38_H_._70ff24e2f3a5c12334ced80a47d8c0ca_0001_0001_0000200031_0000001_0_0001 (protein)
chain: SSSSSEDEERVEELLEEAKQIEDEEEARRILAEAAHIAWEANNSELFFEIAEVLYELIKRSSSSS
B13: il2ra_site2_2erj_normal_mot_HHH_b1_02757_000000121_0001_41_57_H_._HHH_b2_03975_0001_0000300020_0000001_0_af2pred_0001_af2pred (protein)
chain: SSSSSDEEEIEERVRELLERAKQIPDPEEALKHLQEASQLAVEGEDDELLELILEVARKSSSSSS
B14: il2ra_site1_3nfp_sap_24_mot_bca1cc675e315f79de6ed5a5a20872d8_0001_000000179_0001_36_50_H_._beb1d263b9c7401a962785d3a1373af0_0001_af2_0001_0000600024_0000001_0_0 … (protein)
chain: SSSSDEVIKRVQELLKRIKELLKEGDEEEARKLIEEVEELAEEENDPVLRLAAERFEEQVDSSSS
B15: il2ra_site2_2erj_sap_19_mot_HHH_b2_00789_000000198_0001_40_54_H_._HHH_b2_04610_0001_0000200004_0000001_0_0001 (protein)
chain: SSSSSWLHRLYELALEITRALSEGDEERVEELLEELRELAEEADSETAKKIVETLHRHLDSSSSS
B16: il2ra_site1_1z92_normal_mot_HHH_b2_01902_af2_000000252_0001_25_40_H_._HHH_b2_06820_0001_0000200028_0000001_0 (protein)
chain: SSSSDERLELDARAIVRVAVEAAGLSEEDREELEEIAQRLLEEGVDHLEVIQIIDKLALELSSSS
B17: il2ra_site2_3nfp_normal_mot_HHH_b2_02212_af2_000000162_0001_42_56_H_._cb30422a6ab91adc1f3d04a5d8d2ea43_0001_0001_0000200018_0000001_0 (protein)
chain: SKREQIELLQEIWEKGDSDAFFALAEIWWALETGDPEAEEEAERAIEEIKKKDPELARLLEEALK
B18: il2ra_site1_3nfp_sap_14_mot_HHH_b2_00162_af2_000000036_0001_22_38_H_._HHH_b1_02469_0001_0000400012_0000001_0_0001 (protein)
chain: SSSSDTAKRVSELLREAAERAREGDEERVKELLKEAKEIAEEFGDPIVERLIKQYEENLRRSSSS
B19: il2ra_site2_2erj_normal_mot_HHH_b2_01353_af2_000000049_0001_23_39_H_._HHH_b1_01973_af2_0001_0000800016_0000001_0 (protein)
chain: SSSSDEEVKELLEKAEELLEEGNPEEALRVVRRASELAFRLGNFELFAEVAELAREIAERGSSSS
B20: il2ra_site2_3nfp_normal_mot_HHH_b1_06589_000000230_0001_37_50_H_._HHH_b2_05061_0001_0000200006_0000001_0 (protein)
chain: SSSSSSDLEEEVQELLERLKKVSEEEREKLLAKATRLVFENNNPELYMLIAEALFELASSSSSSS
B21: il2ra_site1_1z92_sap_17_mot_HHH_b2_07916_000000165_0001_23_39_H_._HHH_b1_05042_0001_0000100008_0000001_0_0001 (protein)
chain: SSSSSSKKTVEWALELAELAIKTGSPERARFALRNARMIAERLNDEELLEEVEELLEEVNSSSSS
B22: il2ra_site2_3nfp_normal_mot_HHH_b1_05628_af2_000000064_0001_19_35_H_._HHH_b1_04724_af2_0001_0000300023_0000001_0_af2pred_0001_af2pred (protein)
chain: SSSSDLEERVRELLEEAQELLERGNPEEAEKVVLRAASLASEAGDFELFAAANRLAEKIHKSSSS
B23: il2ra_site1_3nfp_normal_mot_0831bd5750e541fe76d95d22628dacf8_0001_000000198_0001_16_33_H_._HHH_b2_03065_af2_0001_0000200009_0000001_0 (protein)
chain: SSSSDVEEEVRKILEEAEELLRKGDFKRALELIHEAQELAEENNDDEARELLKQFARKFAGSSSS
B24: il2ra_site2_2erj_normal_mot_HHH_b2_00789_000000198_0001_40_54_H_._HHH_b1_07623_af2_0001_0000500027_0000001_0 (protein)
chain: SSSSSDTLEVLEELAEELFEEGDRSALELILRYLELSLKQTGDPEIEKAYEKVRELLERLSSSSS
B25: il2ra_site2_3nfp_sap_14_mot_HHH_b1_05122_af2_000000298_0001_39_52_H_._HHH_b2_02238_af2_0001_0000800042_0000001_0_0001 (protein)
chain: SSSSDAEEYIKAALALAERAARRNDPAAERHLKLIRLAIESNGDEEAEELLEEIERLLRELSSSS
B26: il2ra_site1_1z92_normal_mot_HHH_b1_04602_000000153_0001_1_19_H_._HHH_b1_00326_0001_0000100014_0000001_0_af2pred_0001_af2pred_1_swapped (protein)
chain: SSSSDKRFALEVVAKLAARLHLSLEQLKELHELALELLERGLSEEEIEEELEKLAEELKKSSSSS
B27: il2ra_site1_3nfp_normal_mot_HHH_b1_05162_af2_000000139_0001_1_18_H_._HHH_b1_04304_0001_0000400051_0000001_0_af2pred_0001_af2pred (protein)
chain: SSSSSEEQKEFQEIAREVLKLIQEGDHEEAERLIERLEELARKANSPAAKLLVERLKKRVSSSSS
B28: il2ra_site1_1z92_sap_22_mot_HHH_b1_08214_000000261_0001_20_36_H_._HHH_b1_07477_0001_0000800073_0000001_0_0001_af2pred_0001_1_af2pred_swapped (protein)
chain: KITIEIENASPLVEKLIRLAKNAPDVEVRTENYNTYTVEVRNERIAEILERYARMAGVKVEVEMS
B29: il2ra_site2_2erj_sap_13_mot_HHH_b2_05866_000000027_0001_43_57_H_._HHH_b1_01900_0001_0000500025_0000001_0_0001 (protein)
chain: SSSSSDREEVERLLEEIEKALEEGDEEKVARLILEVVRLAREIGDDELLYEVYRLMRLSVSSSSS
B30: il2ra_site1_1z92_normal_mot_01209686ea234b34325f918445e6eade_0001_af2_000000154_0001_18_33_H_._HHH_b2_00358_af2_0001_0000500048_0000001_0_af2pred_0001_af2pred_1 (protein)
chain: SSSSDELEEIAEKIVEELVEELGLSEEDKELLEAAARQAVEAGFSEHSIRLALRALAERLSSSSS
B31: il2ra_site1_3nfp_sap_17_mot_HHH_b2_07180_000000236_0001_22_38_H_._HHH_b1_03639_0001_0000200009_0000001_0_0001 (protein)
chain: SSSSSTERAQRIYELMRELAKITDPEELRELLKEAEELAQERGDERLQRDIEWALEMLNSSSSSS
B32: il2ra_site2_2erj_sap_23_mot_HHH_b1_00839_000000020_0001_43_57_H_._HHH_b2_06385_0001_0000200013_0000001_0_0001 (protein)
chain: SSSSDKIRRLYKLLVELLELVTRGDEERFEEVAEEVEELVEELDSRTAEEALKNLERLIKSSSSS
B33: il2ra_site2_3nfp_sap_21_mot_HHH_b1_04762_000000120_0001_42_54_H_._HHH_b2_02550_0001_0000200009_0000001_0_0001 (protein)
chain: SSSSDLLHRVMQKLLELAEKARSEEEARVALEVYILALEATETNDEELAEEARRLLEELENSSSS
B34: il2ra_site2_3nfp_sap_21_mot_HHH_b2_00326_000000029_0001_23_39_H_._65f6caabe5f1d29e5f94bb05bf74ecd1_0001_af2_0001_0000800016_0000001_1_0001 (protein)
chain: SSSSDIEEEVEELLERAKKLLEEGDKFEAFALLADALFLAWQANDPELRELVRRVSKLMGSSSSS
B35: il2ra_site1_3nfp_sap_14_mot_678a1b28e3afbd0e6d42a78f97d9d1d3_0001_af2_000000264_0001_35_49_H_._76fd10c11be1666c73cf7cbc084f7efb_0001_0001_0000400036_0000001_0_0 … (protein)
chain: DREEIIREAIERAAKNAGVPSVTVSVHDGEVHVEIEGTDYEAKALARLIEDLARVLGLEVEVEVR
B36: il2ra_site1_1z92_sap_19_mot_HHH_b2_05589_000000019_0001_42_57_H_._HHH_b2_04672_0001_0000200013_0000001_0_0001_af2pred_0001_af2pred (protein)
chain: SSSSDLEEDEEIIRVIIEVFKEYHLSLEDLRELHETALRLLEEGVSLEEIERLLRELAHELSSSS
B37: il2ra_site1_1z92_sap_17_mot_HHH_b2_07164_000000082_0001_1_15_H_._70aef1711e60a8afe3a0277517b0bc39_0001_0001_0000100010_0000001_0_0001 (protein)
chain: TKEELRELLEEAAEKNDPELVKEVLEFIERDAGDPRLALQYLLILARKLNDPDLERLVKIVAEEH

molecular target: il2ra, P01589; test: yeast display titration

Apparent Kd, inactive:
B1 no binding seen
B2 no binding seen
B3 no binding seen
B4 > 4.72 nM
B5 no binding seen
B6 no binding seen
B7 no binding seen
B8 no binding seen
B9 no binding seen
B10 no binding seen
B11 no binding seen
B12 > 151 nM
B13 no binding seen
B14 no binding seen
B15 no binding seen
B16 no binding seen
B17 no binding seen
B18 no binding seen
B19 no binding seen
B20 no binding seen
B21 > 1150 nM
B22 no binding seen
B23 no binding seen
B24 no binding seen
B25 no binding seen
B26 no binding seen
B27 no binding seen
B28 no binding seen
B29 no binding seen
B30 no binding seen
B31 no binding seen
B32 no binding seen
B33 no binding seen
B34 no binding seen
B35 no binding seen
B36 no binding seen
B37 no binding seen

Two records picked at random from the list so far:
Apparent Kd, inactive:
B32 no binding seen
B12 > 151 nM
